Data published in patent US20100022559A1, “BISOXIMES AS FUNGICIDES” (BAYER CROPSCIENCE AG, priority 2006, published 2010).
Some results were stated once for a whole list of compounds, not compound by compound. At least one structure is not confirmed: it was looked up by name or label, or the drawing left a doubt.

Each compound was assayed on Venturia inaequalis (assay: Venturia test (apple)/protective). Settings: active compound concentration 100 ppm, protective, evaluation 10 days after inoculation.
Type: in vivo

Structure (SMILES)	efficacy [%]
CCC(C)(CON=C(C)c1cc(C)cc(C)n1)CON=C(C)c1cc(C)cc(C)n1 (stereo not shown) [Compound 794]	≥ 70
CC(=NOCC1CCCCC1ON=C(C)c1cccc(C)n1)c1cccc(C)n1 (stereo not shown) [Compound 823]	≥ 70
CCC(CON=C(C)c1cccc(C)n1)CON=C(C)c1cccc(C)n1 (stereo not shown) [Compound 677]	≥ 70
C=C(CON=C(C)c1cccc(CCC)n1)CON=C(C)c1cccc(CCC)n1 [Compound 62]	≥ 70
CCC(CC)(CON=C(C)c1cccc(C)n1)CON=C(C)c1cccc(C)n1 [Compound 809]	≥ 70
CCC(CON=C(C)c1ccc(C)c(C)n1)CON=C(C)c1ccc(C)c(C)n1 (stereo not shown) [Compound 678]	≥ 70
CC(=NOCC(C)CON=C(C)c1cccc(Cc2ccccc2)n1)c1cccc(C)n1 (stereo not shown) [Compound 420]	≥ 70
CCCC(CON=C(C)c1cccc(C)n1)CON=C(C)c1cccc(C)n1 (stereo not shown) [Compound 270]	≥ 70
C=C(CON=C(C)c1cccc(C)n1)CON=C(c1cccc(C)n1)C(C)C [Compound 359]	≥ 70
CCC1=NOC(CON=C(C)c2cc(C)cc(C)n2)(CON=C(C)c2cc(C)cc(C)n2)C1 (stereo not shown) [Compound 639]	≥ 70
C/C(=N\OCC(C)(C)CON)c1cccc(C)n1 [XII-4]	≥ 70
C=C(CON=C(c1cccc(C)n1)C1CC1)CON=C(c1cccc(C)n1)C1CC1 (single isomer, unassigned) [Compound 311]	≥ 70
CC(=NOCC(C)CON=C(C)c1cccc(C(=O)c2ccccc2)n1)c1cccc(C)n1 (stereo not shown) [Compound 690]	≥ 70
CC(=NOCC1(CON=C(C)c2ccc(C)c(C)n2)CCC1)c1ccc(C)c(C)n1 [Compound 319]	≥ 70
C=C(CON=C(C)c1cc(C)cc(C)n1)CON=C(C)c1cc(C)cc(C)n1 [Compound 219]	≥ 70
C=C(CON=C(C)c1cccc(C)n1)CON=C(C)c1nc(C)cc(OC)n1 (single isomer, unassigned) [Compound 177]	≥ 70
COC(CON=C(C)c1ccc(C)c(C)n1)CON=C(C)c1ccc(C)c(C)n1 (stereo not shown) [Compound 321]	≥ 70
CC(=NOCC(CON=C(C)c1ccc(C)c(C)n1)C(C)C)c1ccc(C)c(C)n1 (stereo not shown) [Compound 681]	≥ 70
Cc1cccc(C(=NOCC(C)CON=C(c2ccccc2)c2cccc(C)n2)c2ccccc2)n1 (mixture of isomers) [Compound 659]	≥ 70

What follows are compounds tested on Botrytis cinerea (assay: Botrytis test (bean)/protective). Settings: active compound concentration 250 ppm, protective, evaluation 2 days after inoculation.
Type: in vivo

Structure (SMILES)	efficacy [%]
CCC(C)(CON=C(C)c1cc(C)cc(C)n1)CON=C(C)c1cc(C)cc(C)n1 (stereo not shown) [Compound 794]	≥ 70
CC(=NOCC1CCCCC1ON=C(C)c1cccc(C)n1)c1cccc(C)n1 (stereo not shown) [Compound 823]	≥ 70
CCC(CON=C(C)c1cccc(C)n1)CON=C(C)c1cccc(C)n1 (stereo not shown) [Compound 677]	≥ 70
CCC(=NOCC(C)CON=C(CC)c1nc(C)c(C)c(C)n1)c1nc(C)c(C)c(C)n1 (stereo not shown) [Compound 254]	≥ 70
CCC(CC)(CON=C(C)c1cccc(C)n1)CON=C(C)c1cccc(C)n1 [Compound 809]	≥ 70
CCC(CON=C(C)c1ccc(C)c(C)n1)CON=C(C)c1ccc(C)c(C)n1 (stereo not shown) [Compound 678]	≥ 70
CC(=NOC[Si](C)(CON=C(C)c1ccc(C)c(C)n1)C(C)C)c1ccc(C)c(C)n1 [Compound 837]	≥ 70
CCC(CC)(CON=C(C)c1cc(C)cc(C)n1)CON=C(C)c1cc(C)cc(C)n1 [Compound 811]	≥ 70
CC(=NOCC(C)CON=C(C)c1cccc(Cc2ccccc2)n1)c1cccc(C)n1 (stereo not shown) [Compound 420]	≥ 70
CCCC(CON=C(C)c1cccc(C)n1)CON=C(C)c1cccc(C)n1 (stereo not shown) [Compound 270]	≥ 70
CCC(CC)(CON=C(C)c1ccc(C)c(C)n1)CON=C(C)c1ccc(C)c(C)n1 [Compound 810]	≥ 70
CC(=NOCC1(CON=C(C)c2ccc(C)c(C)n2)CCC1)c1ccc(C)c(C)n1 [Compound 319]	≥ 70
C=C(CON=C(C)c1cc(C)cc(C)n1)CON=C(C)c1cc(C)cc(C)n1 [Compound 219]	≥ 70
CC(=NOCC1(CON=C(C)c2ccc(C)c(C)n2)CCCCC1)c1ccc(C)c(C)n1 [Compound 320]	≥ 70
CC(=NOCC(CON=C(C)c1ccc(C)c(C)n1)C(C)C)c1ccc(C)c(C)n1 (stereo not shown) [Compound 681]	≥ 70
CC(=NOCC(CON=C(C)c1ccc(C)c(C)n1)c1ccccc1)c1ccc(C)c(C)n1 (stereo not shown) [Compound 318]	≥ 70
CC(=NOCC1(CON=C(C)c2nc(C)ccc2C)CCCC1)c1nc(C)ccc1C (single isomer, unassigned) [Compound 763]	≥ 70
Cc1cccc(C(=NOCC(C)CON=C(c2ccccc2)c2cccc(C)n2)c2ccccc2)n1 (mixture of isomers) [Compound 659]	≥ 70

The compounds below were run on Puccinia recondita (assay: Puccinia test (wheat)/protective). Settings: active compound concentration 500 ppm, protective, evaluation 8-10 days after inoculation.
Type: in vivo

Structure (SMILES)	efficacy [%]
CC(=NOCC(C)CON=C(C)c1cccc(N2CCCC2)n1)c1cccc(N2CCCC2)n1 (stereo not shown) [Compound 783]	≥ 70
CCC(C)(CON=C(C)c1cc(C)cc(C)n1)CON=C(C)c1cc(C)cc(C)n1 (stereo not shown) [Compound 794]	≥ 70
CCC(CC)(CON=C(C)c1cccc(C)n1)CON=C(C)c1cccc(C)n1 [Compound 809]	≥ 70
CC(=NOC[Si](C)(CON=C(C)c1ccc(C)c(C)n1)C(C)C)c1ccc(C)c(C)n1 [Compound 837]	≥ 70
CCC(CC)(CON=C(C)c1cc(C)cc(C)n1)CON=C(C)c1cc(C)cc(C)n1 [Compound 811]	≥ 70
CCC(CC)(CON=C(C)c1ccc(C)c(C)n1)CON=C(C)c1ccc(C)c(C)n1 [Compound 810]	≥ 70
CC(=NOCC1(CON=C(C)c2ccc(C)c(C)n2)CCC1)c1ccc(C)c(C)n1 [Compound 319]	≥ 70
CC(=NOCC1(CON=C(C)c2ccc(C)c(C)n2)CCCCC1)c1ccc(C)c(C)n1 [Compound 320]	≥ 70
CC(=NOCC(CON=C(C)c1ccc(C)c(C)n1)C(C)C)c1ccc(C)c(C)n1 (stereo not shown) [Compound 681]	≥ 70
CC(=NOCC(CON=C(C)c1ccc(C)c(C)n1)c1ccccc1)c1ccc(C)c(C)n1 (stereo not shown) [Compound 318]	≥ 70
CC(=NOCC1(CON=C(C)c2nc(C)ccc2C)CCCC1)c1nc(C)ccc1C (single isomer, unassigned) [Compound 763]	≥ 70

Each compound was assayed on Sphaerotheca fuliginea (assay: Sphaerotheca test (cucumber)/protective). Settings: active compound concentration 500 ppm, protective, evaluation 7 days after inoculation.
Type: in vivo

Structure (SMILES)	efficacy [%]
CCC(C)(CON=C(C)c1cc(C)cc(C)n1)CON=C(C)c1cc(C)cc(C)n1 (stereo not shown) [Compound 794]	≥ 70
CCC(CON=C(C)c1cccc(C)n1)CON=C(C)c1cccc(C)n1 (stereo not shown) [Compound 677]	≥ 70
C=C(CON=C(C)c1cccc(CCC)n1)CON=C(C)c1cccc(CCC)n1 [Compound 62]	≥ 70
CCC(CC)(CON=C(C)c1cccc(C)n1)CON=C(C)c1cccc(C)n1 [Compound 809]	≥ 70
CCC(CON=C(C)c1ccc(C)c(C)n1)CON=C(C)c1ccc(C)c(C)n1 (stereo not shown) [Compound 678]	≥ 70
CCC(CC)(CON=C(C)c1cc(C)cc(C)n1)CON=C(C)c1cc(C)cc(C)n1 [Compound 811]	≥ 70
CC(=NOCC(C)CON=C(C)c1cccc(Cc2ccccc2)n1)c1cccc(C)n1 (stereo not shown) [Compound 420]	≥ 70
CCC(CC)(CON=C(C)c1ccc(C)c(C)n1)CON=C(C)c1ccc(C)c(C)n1 [Compound 810]	≥ 70
CC(=NOCC(C)CON=C(C)c1cccc(C(=O)c2ccccc2)n1)c1cccc(C)n1 (stereo not shown) [Compound 690]	≥ 70
CC(=NOCC1(CON=C(C)c2ccc(C)c(C)n2)CCC1)c1ccc(C)c(C)n1 [Compound 319]	≥ 70
C=C(CON=C(C)c1cc(C)cc(C)n1)CON=C(C)c1cc(C)cc(C)n1 [Compound 219]	≥ 70
CC(=NOCC1(CON=C(C)c2ccc(C)c(C)n2)CCCCC1)c1ccc(C)c(C)n1 [Compound 320]	≥ 70
CC(=NOCC(CON=C(C)c1ccc(C)c(C)n1)C(C)C)c1ccc(C)c(C)n1 (stereo not shown) [Compound 681]	≥ 70
CC(=NOCC(CON=C(C)c1ccc(C)c(C)n1)c1ccccc1)c1ccc(C)c(C)n1 (stereo not shown) [Compound 318]	≥ 70
Cc1cccc(C(=NOCC(C)CON=C(c2ccccc2)c2cccc(C)n2)c2ccccc2)n1 (mixture of isomers) [Compound 659]	≥ 70

What follows are compounds tested on Pyrenophora teres (assay: Pyrenophora teres test (barley)/protective). Settings: active compound concentration 1000 ppm, protective, evaluation 8 days after inoculation.
Type: in vivo

Structure (SMILES)	efficacy [%]
CC(=NOCC1CCCCC1ON=C(C)c1cccc(C)n1)c1cccc(C)n1 (stereo not shown) [Compound 823]	≥ 70
CCC(CON=C(C)c1cccc(C)n1)CON=C(C)c1cccc(C)n1 (stereo not shown) [Compound 677]	≥ 70
CCC(=NOCC(C)CON=C(CC)c1nc(C)c(C)c(C)n1)c1nc(C)c(C)c(C)n1 (stereo not shown) [Compound 254]	≥ 70
C=C(CON=C(C)c1cccc(CCC)n1)CON=C(C)c1cccc(CCC)n1 [Compound 62]	≥ 70
CCC(CON=C(C)c1ccc(C)c(C)n1)CON=C(C)c1ccc(C)c(C)n1 (stereo not shown) [Compound 678]	≥ 70
CC(=NOCC(C)CON=C(C)c1cccc(Cc2ccccc2)n1)c1cccc(C)n1 (stereo not shown) [Compound 420]	≥ 70
CCCC(CON=C(C)c1cccc(C)n1)CON=C(C)c1cccc(C)n1 (stereo not shown) [Compound 270]	≥ 70
C/C(=N\OCC(C)(C)CON)c1cccc(C)n1 [XII-4]	≥ 70
C=C(CON=C(c1cccc(C)n1)C1CC1)CON=C(c1cccc(C)n1)C1CC1 (single isomer, unassigned) [Compound 311]	≥ 70
CC(=NOCC(C)CON=C(C)c1cccc(C(=O)c2ccccc2)n1)c1cccc(C)n1 (stereo not shown) [Compound 690]	≥ 70
C=C(CON=C(C)c1cc(C)cc(C)n1)CON=C(C)c1cc(C)cc(C)n1 [Compound 219]	≥ 70
C=C(CON=C(C)c1cccc(C)n1)CON=C(C)c1nc(C)cc(OC)n1 (single isomer, unassigned) [Compound 177]	≥ 70
COC(CON=C(C)c1ccc(C)c(C)n1)CON=C(C)c1ccc(C)c(C)n1 (stereo not shown) [Compound 321]	≥ 70

Each compound was assayed on Leptosphaeria nodorum (assay: Leptosphaeria nodorum test (wheat)/protective). Settings: active compound concentration 1000 ppm, protective, evaluation 10 days after inoculation.
Type: in vivo

Structure (SMILES)	efficacy [%]
CC(=NOCC1CCCCC1ON=C(C)c1cccc(C)n1)c1cccc(C)n1 (stereo not shown) [Compound 823]	≥ 70
CCC(CON=C(C)c1cccc(C)n1)CON=C(C)c1cccc(C)n1 (stereo not shown) [Compound 677]	≥ 70
CCC(=NOCC(C)CON=C(CC)c1nc(C)c(C)c(C)n1)c1nc(C)c(C)c(C)n1 (stereo not shown) [Compound 254]	≥ 70
C=C(CON=C(C)c1cccc(CCC)n1)CON=C(C)c1cccc(CCC)n1 [Compound 62]	≥ 70
CCC(CON=C(C)c1ccc(C)c(C)n1)CON=C(C)c1ccc(C)c(C)n1 (stereo not shown) [Compound 678]	≥ 70
CC(=NOCC(C)CON=C(C)c1cccc(Cc2ccccc2)n1)c1cccc(C)n1 (stereo not shown) [Compound 420]	≥ 70
CCCC(CON=C(C)c1cccc(C)n1)CON=C(C)c1cccc(C)n1 (stereo not shown) [Compound 270]	≥ 70
C=C(CON=C(C)c1cccc(C)n1)CON=C(c1cccc(C)n1)C(C)C [Compound 359]	≥ 70
CCC1=NOC(CON=C(C)c2cc(C)cc(C)n2)(CON=C(C)c2cc(C)cc(C)n2)C1 (stereo not shown) [Compound 639]	≥ 70
C/C(=N\OCC(C)(C)CON)c1cccc(C)n1 [XII-4]	≥ 70
C=C(CON=C(c1cccc(C)n1)C1CC1)CON=C(c1cccc(C)n1)C1CC1 (single isomer, unassigned) [Compound 311]	≥ 70
CC(=NOCC(C)CON=C(C)c1cccc(C(=O)c2ccccc2)n1)c1cccc(C)n1 (stereo not shown) [Compound 690]	≥ 70
C=C(CON=C(C)c1cc(C)cc(C)n1)CON=C(C)c1cc(C)cc(C)n1 [Compound 219]	≥ 70
C=C(CON=C(C)c1cccc(C)n1)CON=C(C)c1nc(C)cc(OC)n1 (single isomer, unassigned) [Compound 177]	≥ 70
COC(CON=C(C)c1ccc(C)c(C)n1)CON=C(C)c1ccc(C)c(C)n1 (stereo not shown) [Compound 321]	≥ 70
